Reference: patent publication US7314939B2, “Compositions and methods for inhibiting TGF-β” (Millennium Pharmaceuticals, Inc., priority 2003, dated 2008)
Some entries share one result that the patent states for a list of compounds. Some compounds share one range, which may span the group rather than tell each member.

By UniProt entry, the sequences of proteins in these tests, tags left out. Residues count along the entry.
UniProt O00238, 14-502: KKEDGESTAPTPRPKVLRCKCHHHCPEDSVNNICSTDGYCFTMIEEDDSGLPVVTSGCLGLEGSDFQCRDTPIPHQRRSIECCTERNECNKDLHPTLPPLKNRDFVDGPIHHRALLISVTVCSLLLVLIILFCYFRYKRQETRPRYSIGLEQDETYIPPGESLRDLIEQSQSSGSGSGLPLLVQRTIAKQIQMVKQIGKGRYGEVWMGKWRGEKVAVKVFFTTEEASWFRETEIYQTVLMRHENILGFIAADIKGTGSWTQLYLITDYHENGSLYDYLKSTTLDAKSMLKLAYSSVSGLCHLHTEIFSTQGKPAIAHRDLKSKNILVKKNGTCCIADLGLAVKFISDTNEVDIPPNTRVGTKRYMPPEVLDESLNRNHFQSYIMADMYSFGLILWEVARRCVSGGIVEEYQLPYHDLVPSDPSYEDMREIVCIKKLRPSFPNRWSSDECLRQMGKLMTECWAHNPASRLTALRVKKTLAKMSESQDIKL

Tests used:
ALK6 = ALK6 (Homo sapiens, UniProt O00238); assay: Kinase selectivity ALK5 vs. ALK6; type: biochemical; details: ALK5 vs. closely related ALK6
p38 kinases = assay: Kinase selectivity ALK5 vs. p38; type: biochemical

SMILES | selectivity for ALK5 (TGF-β) vs. ALK6 (ALK6) | selectivity for ALK5 (TGF-β) vs. p38 kinases (p38 kinases)
Fc1c(-c2ccc(Cl)s2)nc2ccccc2c1Nc1ccncc1 [Compound 51, [2-(5-Chloro-thiophen-2-yl)-3-fluoro-quinolin-4-yl]-pyridin-4-yl-amine] | 50-100 fold | 50-100 fold
Cc1ccc(-c2nc3ccccc3c(Nc3ccncc3)c2F)o1 [Compound 55, [3-Fluoro-2-(5-methyl-furan-2-yl)-quinolin-4-yl]-pyridin-4-yl-amine] | 50-100 fold | 50-100 fold
Fc1c(-c2cccc(Cl)c2)nc2ccccc2c1Nc1ccncc1 [Compound 7, [2-(3-Chloro-phenyl)-3-fluoro-quinolin-4-yl]-pyridin-4-yl-amine] | 50-100 fold | 50-100 fold
